Test results reported in patent US20180028493A1, “INHIBITORS OF INDUCED MMP-1 PRODUCTION” (THE TRUSTEES OF COLUMBIA UNIVERSITY IN THE CITY OF NEW YORK, priority 2015, published 2018).
At least one structure is not confirmed: it was looked up by name or label, or the drawing left a doubt.

Tested on: IL-8 (CXCL8)
Test: IL-8 up regulation in SAECs treated with CSE
Type: cell-based
Settings: SAEC, non-smoke exposed conditions

Q: Which “IL-8 expression vs un-treated cells” value does the source give for `CCC(C)(C)C(=O)O[C@H]1C[C@@H](C)C=C2C=C[C@H](C)[C@H](CC[C@@H]3C[C@@H](O)CC(=O)O3)[C@H]21` [Compound 1, Simvastatin] here?
A: Its value is “no statistically significant difference”.
